Test results taken from article PMC7762460.
These are yes or no findings as the source states them, for the method shown. Binding seen in cells or lysates may run through a third protein. Some binding calls cover weakened binding; strength is not graded here.

The chains behind the UniProt entries cited, without tags or fusion partners.
UniProt Q13485: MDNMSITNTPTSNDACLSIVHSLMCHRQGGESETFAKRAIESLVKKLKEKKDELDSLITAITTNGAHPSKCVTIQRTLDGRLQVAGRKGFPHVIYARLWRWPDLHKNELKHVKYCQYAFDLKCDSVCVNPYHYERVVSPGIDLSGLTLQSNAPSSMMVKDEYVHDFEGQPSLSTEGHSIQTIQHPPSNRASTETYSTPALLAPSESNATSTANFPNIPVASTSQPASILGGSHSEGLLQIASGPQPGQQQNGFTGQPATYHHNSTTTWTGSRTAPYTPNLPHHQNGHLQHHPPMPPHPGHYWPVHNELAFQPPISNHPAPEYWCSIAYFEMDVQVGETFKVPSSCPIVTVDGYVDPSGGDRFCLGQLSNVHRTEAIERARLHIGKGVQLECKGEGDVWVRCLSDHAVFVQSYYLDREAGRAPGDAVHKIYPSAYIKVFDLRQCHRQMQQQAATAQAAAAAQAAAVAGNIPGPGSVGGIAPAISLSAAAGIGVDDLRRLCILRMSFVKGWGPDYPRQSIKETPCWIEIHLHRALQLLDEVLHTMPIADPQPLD
UniProt O43294: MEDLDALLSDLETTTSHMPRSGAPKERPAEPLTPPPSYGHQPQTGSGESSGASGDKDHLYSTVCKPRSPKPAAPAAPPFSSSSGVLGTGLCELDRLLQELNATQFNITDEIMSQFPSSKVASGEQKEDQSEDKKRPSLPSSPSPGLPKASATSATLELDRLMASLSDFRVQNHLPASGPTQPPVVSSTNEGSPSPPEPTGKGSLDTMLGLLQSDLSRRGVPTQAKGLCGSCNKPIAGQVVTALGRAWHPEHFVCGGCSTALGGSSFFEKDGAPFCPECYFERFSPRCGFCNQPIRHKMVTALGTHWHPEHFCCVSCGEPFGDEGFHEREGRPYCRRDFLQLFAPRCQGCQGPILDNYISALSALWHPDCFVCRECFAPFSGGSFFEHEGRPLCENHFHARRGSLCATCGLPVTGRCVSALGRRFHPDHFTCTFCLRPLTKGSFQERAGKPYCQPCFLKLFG

Biological target: smad4 (UniProt Q13485)
Assay: co-IP; whole cell extract (400 mM KCl, 10 mM Na2HPO4, 1 mM EDTA, 1 mM DTT, 10% glycerol, 0.5% NP-40); appropriate antibodies and protein G Sepharose beads overnight at 4 °C; Western blot; which protein was precipitated not given

- binding: binds
Substance: Hic-5 (hydrogen peroxide inducible clone 5) (from UniProt O43294 1-461)
